# Laboratory results reported in patent publication US8026208B2, “Peptide tyrosinase inhibitors and uses thereof” (The Board of Trustees of the Leland Stanford Junior …, priority 2007, dated 2011).
# Part of at least one peptide drawing is inferred or uncertain, most often the ends. No end group written: not given here.
# Experiments:
# [1] = target: T1, cellular tyrosinase activity of melanocytes (Homo sapiens, UniProt P14679); assay: Assay of cellular tyrosinase activity with L-DOPA as substrate; assay type: cell-based; conditions: 1 to 100 μM
# T1 construct: Primary human melanocytes were kindly obtained from Dr. Todd Ridky; endogenous in cells; host or cells: primary human melanocytes (passage 3)
# T1 sequence (P14679 19-529): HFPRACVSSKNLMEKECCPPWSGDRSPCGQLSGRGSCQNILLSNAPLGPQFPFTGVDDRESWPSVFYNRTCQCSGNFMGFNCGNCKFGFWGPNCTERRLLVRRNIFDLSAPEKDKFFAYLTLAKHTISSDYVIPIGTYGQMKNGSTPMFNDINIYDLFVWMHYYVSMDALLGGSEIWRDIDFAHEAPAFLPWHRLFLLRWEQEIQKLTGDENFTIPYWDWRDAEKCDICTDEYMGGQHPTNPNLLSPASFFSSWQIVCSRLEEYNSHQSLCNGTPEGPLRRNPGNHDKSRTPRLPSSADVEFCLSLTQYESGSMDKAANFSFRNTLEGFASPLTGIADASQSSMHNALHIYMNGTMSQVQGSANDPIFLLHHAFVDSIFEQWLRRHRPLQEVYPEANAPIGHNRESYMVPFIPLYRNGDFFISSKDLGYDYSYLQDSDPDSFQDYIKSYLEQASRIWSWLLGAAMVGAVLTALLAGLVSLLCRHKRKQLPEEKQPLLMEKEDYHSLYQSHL
# Method: (§1) Primary human melanocytes were kindly obtained from Dr. Todd Ridky in the department of dermatology, Stanford University. Cells were cultured in Medium 254 (Cascade Biologics) supplemented with Human Melanocyte Growth Supplement (HMGS, Cascade Biologics). They were grown in a humidified atmosphere with 5% CO2 at 37° C. Cell plating densities were arranged that those cells were in log phase of growth for the duration of incubation with test samples. Subcultures of cells were plated at a density of 4×10^4 cells/cm^2. Approximately 24 h later, fresh medium and test samples were added. Cells were harvested 7 d after test samples addition, replaced with fresh medium and test samples every two days.
# Human melanocytes were cultured in 6-well plates. […] The culture plate was incubated at 37° C. for 30 min, and then read with the spectrophotometer at 475 nm.
# Tyrosinase inhibitory activity was calculated with the following formula: tyrosinase inhibition (%)=[1−(O.D.475 of sample/O.D.475 of control)]×100%.
# We also examined the inhibitory action of RA peptide on cellular tyrosinase activity of melanocytes, using L-DOPA as substrate. […] The culture plate was incubated at 37° C. for 30 min, and then read with the spectrophotometer at 475 nm.
# Mushroom tyrosinase [2] = assay: Mushroom tyrosinase inhibition, colorimetric detection of dopachrome (IC50, kinetics); assay type: biochemical; conditions: L-tyrosine substrate, pH 6.8, 37° C., absorbance 475 nm at 30 min
# Method: Mushroom tyrosinase, L-tyrosine and other chemicals for the enzymatic reaction were obtained from Sigma-Aldrich. […] It is understood that research grade reagents were used for convenience, and it is preferred that the peptides be prepared to pharmaceutical grade purity, greater than 90%, preferably greater than 99% pure. Inhibition of tyrosinase by experimental peptides was determined by calorimetric detection of dopachrome, the reaction product of the substrate L-tyrosine. Mushroom tyrosinase, L-tyrosine, and a potassium phosphate buffer (pH 6.8) were added to 96-well plates containing short sequence peptides dissolved in 5% DMSO and incubated at 37° C. The absorbance at 475 nm was measured using a BIO-TEK plate reader 30 min after reaction initiation. Each experiment was performed in triplicate on 3 separate occasions. The protocol is described in further detail in Piao et al., “Mushroom Tyrosinase Inhibition Activity of Some Chromones,” Chem. Pharm. Bull. 56(3): 309-311 (2002), and in Pomerants, J. Biol. Chem 238:2351-2357 (1963). Enzyme kinetics were calculated using the Michaelis-Menton equation by observing changes in reaction velocity accompanying substrate concentrations of 0.5, 1, 2, and 4 mM L-tyrosine. Once initial reaction velocities were obtained, Lineweaver-Burke plots were created to calculate Km, Vmax, and to determine the mode of enzymatic inhibition.
# [3] = tested on: Primary human melanocytes; assay: Melanocyte proliferation rate; assay type: cell-based; conditions: 1, 10 and 100 μM, 7 d
# Method: as §1
# To exclude the possibility that the inhibitory effects of RA peptide on melanogenesis might be caused by the inhibition of cell growth, we compared the number of cells grown in the presence and absence of test samples.
# Human melanocytes = assay: Melanin content measurement in melanocytes; assay type: cell-based; conditions: 10 μM (peptide: similar concentration), 7 days
# Method: as §1
# Human melanocytes were cultured in 6-well plates and treated with individual test samples for 7 d. After washes in PBS, cells were detached by short incubation in trypsin/EDTA (0.25%/0.1% in PBS). An aliquot was used for cell count. […] Melanin concentrations were calculated by comparison of the OD at 475 nm of unknown samples with a standard curve obtained with synthetic melanin.
# To provide more direct evidence that RA peptide inhibits melanogenesis, its effects on melanin production in melanocytes was studied. The contents of melanin in melanocytes treated with no addition, RA peptide or HQ for 7 days were determined with a spectrophotometer and compared with a melanin standard curve. […]
# [4] = tested on: B16-F10 mouse melanoma cells; assay: B-16 pigmentation assay; assay type: cell-based; conditions: 7 days
# Method: The B-16 pigmentation assay used B16-F10 mouse melanoma cells (ATCC CRL-6475) grown in DMEM, DMEM without phenol red, FBS, antibiotics, L-glutamine and other standard components. Cells were counted in a Packard Spectracount (microplate spectrophotometer) filtered at 540 nm and 570 nm. The cells were cultured with growth medium and incubated for 24 hrs. at 37° C. and 10% CO2. Cells were treated with 200 μl of growth medium containing test active ingredient and incubated at 37° C. and 10% CO2. After 7 days, the cells were read at 540 nm using the Packard microplate reader. Cell viability was assessed using the MTT assay (Mosmann T. Rapid colorimetric assay for cellular growth and survival: application to proliferation and cytotoxicity assays. J Immunol Methods. 1983 Dec. 16; 65(1-2):55-63), which is used to determine the number of living cells in a sample.
# Mushroom tyrosinase [5] = assay: Tyrosinase inhibition at single concentration (melanin synthesis evaluation); assay type: biochemical
# Method: Peptides SF, VL, and PLG-OH were tested, along with controls of kojic acid, a known tyrosinase inhibitor, and licorice extracts, a known tyrosinase inhibitor (See J. Agric. Food Chem., 51 (5), 1201-1207, 2003). Tyrosinase inhibition was measured using mushroom tyrosinase (Sigma Aldrich cat # T3824) and L-tyrosine (Sigma Aldrich cat # T8566) in an assay buffer consisting of phosphate buffer (1.0M, pH 6.8) and 5%, and absolute water. The assay buffer, with test sample concentrations and tyrosinase, was incubated in the dark at room temperature for one hour and absorption was read.
sequence,measurement,setting,value
"RADSRADC [RA peptide, RADSRADC]",reduction of cellular tyrosinase activity (in words),[1],dose-dependent reduction
same,IC50,Mushroom tyrosinase [2],123 µM
same,inhibitory effects on melanocyte proliferation rates,[3],did not observe any inhibitory effects
same,melanin content,Human melanocytes,significantly reduced
same,% Depigmentation (B-16 Assay),[4]; concentration tested 150 uM,14%
same,% Depigmentation (B-16 Assay),[4]; concentration tested 300 uM,19%
same,% Depigmentation (B-16 Assay),[4]; concentration tested 450 uM,23%
same,inhibitor of Mushroom Tyrosinase (judgement in words),Mushroom tyrosinase [5]; 150 uM,effective inhibitor
same,% Tyrosinase inhibition,Mushroom tyrosinase [5]; concentration tested 150 uM,99%
